# Laboratory results from patent US7378495B2, “PTH-rP related peptide cancer therapeutics” (Pevion Biotech, Ltd., priority 2002, dated 2008).
# Part of at least one peptide drawing is inferred or uncertain, most often the ends. Where a SMILES comes first, the peptide text is derived from it.
# Columns and labels:
# [1] = system: CIR-A2 target cells pulsed with the cognate peptide; type: cell-based, human
# [2] = system: EL4/HHD/PTHrP transfectants; design: species or system H3CD8 mice; conditions: mouse, in vivo
SMILES,Concentration of cognate peptide on pulsed target cells at which specific CTL lines induce 25% of killing [1],"Lysis by spleen cell cultures, ranking of re-boost peptide [2]"
CC[C@H](C)[C@H](NC(=O)[C@H](CC(C)C)NC(=O)[C@H](Cc1c[nH]cn1)NC(=O)[C@H](Cc1c[nH]cn1)NC(=O)[C@H](CC(C)C)NC(=O)[C@@H](N)Cc1ccccc1)C(=O)N[C@@H](C)C(=O)N[C@@H](CCC(=O)O)C(=O)N[C@H](C(=O)N[C@@H](Cc1c[nH]cn1)C(=O)O)[C@@H](C)CC [PTR-2] (H-FLHHLIAEIH-OH),25 µg/mL,maximal lysis
CC(C)C[C@H](NC(=O)[C@H](CCC(=O)O)NC(=O)[C@H](CC(C)C)NC(=O)[C@H](CO)NC(=O)[C@@H](NC(=O)[C@@H](NC(=O)[C@H](CO)NC(=O)[C@@H](N)[C@@H](C)O)[C@@H](C)O)[C@@H](C)O)C(=O)N[C@@H](CC(=O)O)C(=O)O [PTR-4] (H-TSTTSLELD-OH),~10 µg/mL,maximal lysis
